From the supplement of paper PMC10849652
Some of the results follow. Residues, ends and D or L forms follow the SMILES beside them. *: point of attachment. Cbz = O=C(OCc1ccccc1)*

Sequences of proteins named here, by UniProt entry; tags and fusion partners are left off. A change or cut given only in a name is not applied to a line headed by its entry.
UniProt P54259: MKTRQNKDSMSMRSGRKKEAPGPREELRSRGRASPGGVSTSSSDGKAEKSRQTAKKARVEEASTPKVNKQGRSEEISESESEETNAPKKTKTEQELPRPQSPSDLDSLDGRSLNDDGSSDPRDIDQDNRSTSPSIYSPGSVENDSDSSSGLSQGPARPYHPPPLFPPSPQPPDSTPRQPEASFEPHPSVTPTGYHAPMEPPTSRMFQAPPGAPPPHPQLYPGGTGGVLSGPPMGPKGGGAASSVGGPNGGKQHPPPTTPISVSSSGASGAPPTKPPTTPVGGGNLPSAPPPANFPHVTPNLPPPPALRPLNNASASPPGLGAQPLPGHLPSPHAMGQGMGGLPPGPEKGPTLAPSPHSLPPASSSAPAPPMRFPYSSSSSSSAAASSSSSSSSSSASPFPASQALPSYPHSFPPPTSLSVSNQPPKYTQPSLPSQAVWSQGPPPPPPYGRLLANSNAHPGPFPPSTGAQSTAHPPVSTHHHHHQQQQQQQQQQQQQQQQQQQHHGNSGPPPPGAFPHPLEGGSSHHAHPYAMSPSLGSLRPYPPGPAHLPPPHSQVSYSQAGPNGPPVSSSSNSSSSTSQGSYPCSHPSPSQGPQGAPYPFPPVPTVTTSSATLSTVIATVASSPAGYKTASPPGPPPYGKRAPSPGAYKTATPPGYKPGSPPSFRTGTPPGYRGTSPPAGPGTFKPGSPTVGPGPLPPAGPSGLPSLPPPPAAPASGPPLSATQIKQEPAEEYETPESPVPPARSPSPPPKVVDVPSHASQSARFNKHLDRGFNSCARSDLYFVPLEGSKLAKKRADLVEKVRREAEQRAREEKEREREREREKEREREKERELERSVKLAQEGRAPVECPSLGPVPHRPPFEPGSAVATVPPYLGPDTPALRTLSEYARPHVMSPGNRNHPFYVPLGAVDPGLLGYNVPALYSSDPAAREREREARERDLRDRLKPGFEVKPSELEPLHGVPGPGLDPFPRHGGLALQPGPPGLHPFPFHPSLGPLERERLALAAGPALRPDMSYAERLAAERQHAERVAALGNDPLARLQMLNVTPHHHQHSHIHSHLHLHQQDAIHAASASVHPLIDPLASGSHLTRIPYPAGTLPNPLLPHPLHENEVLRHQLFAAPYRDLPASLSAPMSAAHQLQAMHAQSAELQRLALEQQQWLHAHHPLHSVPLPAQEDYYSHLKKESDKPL
UniProt P32121, whole entry, looked up: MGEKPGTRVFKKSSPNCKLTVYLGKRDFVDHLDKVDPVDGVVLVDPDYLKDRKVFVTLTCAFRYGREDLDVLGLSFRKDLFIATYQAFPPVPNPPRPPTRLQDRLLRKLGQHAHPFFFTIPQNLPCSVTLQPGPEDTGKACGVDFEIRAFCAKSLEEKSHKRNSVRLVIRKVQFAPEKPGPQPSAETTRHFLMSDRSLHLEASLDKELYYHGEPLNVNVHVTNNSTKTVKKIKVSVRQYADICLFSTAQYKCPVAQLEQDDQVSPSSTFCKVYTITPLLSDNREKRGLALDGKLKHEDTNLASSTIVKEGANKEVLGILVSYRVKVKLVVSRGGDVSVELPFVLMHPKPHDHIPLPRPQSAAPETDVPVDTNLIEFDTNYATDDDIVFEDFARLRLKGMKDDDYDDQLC
UniProt P15848: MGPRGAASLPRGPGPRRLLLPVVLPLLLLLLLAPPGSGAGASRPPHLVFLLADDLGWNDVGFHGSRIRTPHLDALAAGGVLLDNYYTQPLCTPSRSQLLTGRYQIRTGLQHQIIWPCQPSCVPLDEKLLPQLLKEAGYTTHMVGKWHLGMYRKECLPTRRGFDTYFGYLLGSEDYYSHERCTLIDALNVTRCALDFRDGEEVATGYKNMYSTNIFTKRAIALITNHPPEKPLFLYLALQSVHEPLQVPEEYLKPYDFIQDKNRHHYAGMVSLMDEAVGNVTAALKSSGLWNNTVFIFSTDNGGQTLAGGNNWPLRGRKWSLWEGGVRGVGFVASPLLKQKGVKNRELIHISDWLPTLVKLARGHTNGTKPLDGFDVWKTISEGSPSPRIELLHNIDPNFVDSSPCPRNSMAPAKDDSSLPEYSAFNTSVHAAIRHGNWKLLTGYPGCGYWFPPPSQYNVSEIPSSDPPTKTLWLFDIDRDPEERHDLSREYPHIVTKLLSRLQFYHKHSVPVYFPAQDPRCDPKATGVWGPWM
UniProt Q9UH62: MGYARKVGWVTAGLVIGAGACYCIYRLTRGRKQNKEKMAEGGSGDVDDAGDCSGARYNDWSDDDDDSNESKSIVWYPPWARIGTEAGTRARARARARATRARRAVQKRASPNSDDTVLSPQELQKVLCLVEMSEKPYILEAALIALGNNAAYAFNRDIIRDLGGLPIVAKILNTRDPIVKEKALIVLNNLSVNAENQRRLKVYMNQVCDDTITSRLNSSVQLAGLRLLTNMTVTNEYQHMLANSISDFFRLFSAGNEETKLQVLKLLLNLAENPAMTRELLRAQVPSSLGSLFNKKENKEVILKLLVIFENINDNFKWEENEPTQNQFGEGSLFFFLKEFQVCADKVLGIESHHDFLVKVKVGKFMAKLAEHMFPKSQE
UniProt Q92747, whole entry, looked up: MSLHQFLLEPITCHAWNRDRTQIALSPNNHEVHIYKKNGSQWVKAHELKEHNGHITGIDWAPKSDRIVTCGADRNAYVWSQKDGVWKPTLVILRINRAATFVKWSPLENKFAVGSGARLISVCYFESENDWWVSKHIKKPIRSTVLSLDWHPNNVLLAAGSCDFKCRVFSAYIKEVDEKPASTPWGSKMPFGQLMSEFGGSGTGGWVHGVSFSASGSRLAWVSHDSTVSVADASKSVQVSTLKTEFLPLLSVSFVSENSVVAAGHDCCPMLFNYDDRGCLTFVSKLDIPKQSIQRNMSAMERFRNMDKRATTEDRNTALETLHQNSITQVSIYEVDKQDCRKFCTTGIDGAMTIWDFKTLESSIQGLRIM
UniProt Q9BZE9, whole entry, looked up: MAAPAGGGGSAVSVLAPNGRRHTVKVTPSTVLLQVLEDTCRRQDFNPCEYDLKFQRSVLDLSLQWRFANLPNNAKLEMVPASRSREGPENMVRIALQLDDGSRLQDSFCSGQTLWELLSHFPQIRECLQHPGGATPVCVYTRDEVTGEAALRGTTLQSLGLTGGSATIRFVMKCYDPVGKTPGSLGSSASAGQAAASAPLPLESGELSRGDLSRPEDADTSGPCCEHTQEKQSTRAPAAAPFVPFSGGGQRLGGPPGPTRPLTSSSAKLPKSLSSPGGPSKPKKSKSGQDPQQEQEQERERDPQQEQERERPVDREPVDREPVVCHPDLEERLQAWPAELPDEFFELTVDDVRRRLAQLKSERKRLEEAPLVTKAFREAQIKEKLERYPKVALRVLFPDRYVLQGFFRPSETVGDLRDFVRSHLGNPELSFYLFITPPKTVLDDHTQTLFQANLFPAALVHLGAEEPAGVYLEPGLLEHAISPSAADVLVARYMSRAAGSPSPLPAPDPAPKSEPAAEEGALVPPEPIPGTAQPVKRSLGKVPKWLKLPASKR
UniProt P36542: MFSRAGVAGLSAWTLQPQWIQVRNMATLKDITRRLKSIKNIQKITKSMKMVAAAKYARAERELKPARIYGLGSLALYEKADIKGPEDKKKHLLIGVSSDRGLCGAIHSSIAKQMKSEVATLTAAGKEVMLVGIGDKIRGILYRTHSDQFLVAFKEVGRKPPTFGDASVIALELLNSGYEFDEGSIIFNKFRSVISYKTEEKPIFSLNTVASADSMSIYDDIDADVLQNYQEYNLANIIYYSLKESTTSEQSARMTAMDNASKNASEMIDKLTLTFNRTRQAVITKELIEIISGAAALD
UniProt Q04656: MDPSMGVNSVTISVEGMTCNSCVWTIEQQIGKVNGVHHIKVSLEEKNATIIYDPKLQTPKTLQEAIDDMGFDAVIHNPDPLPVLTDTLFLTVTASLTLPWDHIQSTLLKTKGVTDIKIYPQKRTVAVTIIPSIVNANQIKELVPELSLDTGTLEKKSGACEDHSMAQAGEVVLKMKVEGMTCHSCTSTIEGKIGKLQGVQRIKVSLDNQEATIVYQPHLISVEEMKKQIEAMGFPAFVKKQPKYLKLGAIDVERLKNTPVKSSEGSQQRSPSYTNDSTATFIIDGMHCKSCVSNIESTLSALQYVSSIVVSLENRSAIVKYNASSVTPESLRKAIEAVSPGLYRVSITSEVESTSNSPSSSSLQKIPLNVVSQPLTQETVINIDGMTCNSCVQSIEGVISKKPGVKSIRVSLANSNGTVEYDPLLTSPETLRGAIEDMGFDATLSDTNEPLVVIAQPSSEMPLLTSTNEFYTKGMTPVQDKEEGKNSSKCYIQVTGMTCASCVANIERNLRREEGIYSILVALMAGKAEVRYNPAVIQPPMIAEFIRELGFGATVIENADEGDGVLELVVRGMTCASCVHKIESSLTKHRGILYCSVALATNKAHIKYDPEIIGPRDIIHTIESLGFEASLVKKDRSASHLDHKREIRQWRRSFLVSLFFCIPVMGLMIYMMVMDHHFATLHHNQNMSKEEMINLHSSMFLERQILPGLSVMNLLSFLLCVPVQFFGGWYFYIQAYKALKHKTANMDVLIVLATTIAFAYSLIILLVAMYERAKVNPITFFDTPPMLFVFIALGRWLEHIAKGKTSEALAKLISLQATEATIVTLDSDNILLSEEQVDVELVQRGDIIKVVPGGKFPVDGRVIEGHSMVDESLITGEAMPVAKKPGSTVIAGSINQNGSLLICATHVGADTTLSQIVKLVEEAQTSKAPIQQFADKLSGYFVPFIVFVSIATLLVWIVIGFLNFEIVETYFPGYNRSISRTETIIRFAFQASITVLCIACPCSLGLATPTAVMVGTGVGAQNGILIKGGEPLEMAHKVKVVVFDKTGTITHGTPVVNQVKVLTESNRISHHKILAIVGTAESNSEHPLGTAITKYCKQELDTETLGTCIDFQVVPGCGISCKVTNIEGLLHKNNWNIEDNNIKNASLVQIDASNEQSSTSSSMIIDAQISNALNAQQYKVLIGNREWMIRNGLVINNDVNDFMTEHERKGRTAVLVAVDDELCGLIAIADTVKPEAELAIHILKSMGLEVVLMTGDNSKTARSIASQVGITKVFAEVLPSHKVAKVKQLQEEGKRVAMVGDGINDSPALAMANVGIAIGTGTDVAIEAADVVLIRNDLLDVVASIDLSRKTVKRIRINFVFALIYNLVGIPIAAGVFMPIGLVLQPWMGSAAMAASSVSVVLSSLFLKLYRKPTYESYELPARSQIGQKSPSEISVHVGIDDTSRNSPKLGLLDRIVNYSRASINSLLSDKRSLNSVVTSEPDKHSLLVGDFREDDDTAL
UniProt Q9Y2G3: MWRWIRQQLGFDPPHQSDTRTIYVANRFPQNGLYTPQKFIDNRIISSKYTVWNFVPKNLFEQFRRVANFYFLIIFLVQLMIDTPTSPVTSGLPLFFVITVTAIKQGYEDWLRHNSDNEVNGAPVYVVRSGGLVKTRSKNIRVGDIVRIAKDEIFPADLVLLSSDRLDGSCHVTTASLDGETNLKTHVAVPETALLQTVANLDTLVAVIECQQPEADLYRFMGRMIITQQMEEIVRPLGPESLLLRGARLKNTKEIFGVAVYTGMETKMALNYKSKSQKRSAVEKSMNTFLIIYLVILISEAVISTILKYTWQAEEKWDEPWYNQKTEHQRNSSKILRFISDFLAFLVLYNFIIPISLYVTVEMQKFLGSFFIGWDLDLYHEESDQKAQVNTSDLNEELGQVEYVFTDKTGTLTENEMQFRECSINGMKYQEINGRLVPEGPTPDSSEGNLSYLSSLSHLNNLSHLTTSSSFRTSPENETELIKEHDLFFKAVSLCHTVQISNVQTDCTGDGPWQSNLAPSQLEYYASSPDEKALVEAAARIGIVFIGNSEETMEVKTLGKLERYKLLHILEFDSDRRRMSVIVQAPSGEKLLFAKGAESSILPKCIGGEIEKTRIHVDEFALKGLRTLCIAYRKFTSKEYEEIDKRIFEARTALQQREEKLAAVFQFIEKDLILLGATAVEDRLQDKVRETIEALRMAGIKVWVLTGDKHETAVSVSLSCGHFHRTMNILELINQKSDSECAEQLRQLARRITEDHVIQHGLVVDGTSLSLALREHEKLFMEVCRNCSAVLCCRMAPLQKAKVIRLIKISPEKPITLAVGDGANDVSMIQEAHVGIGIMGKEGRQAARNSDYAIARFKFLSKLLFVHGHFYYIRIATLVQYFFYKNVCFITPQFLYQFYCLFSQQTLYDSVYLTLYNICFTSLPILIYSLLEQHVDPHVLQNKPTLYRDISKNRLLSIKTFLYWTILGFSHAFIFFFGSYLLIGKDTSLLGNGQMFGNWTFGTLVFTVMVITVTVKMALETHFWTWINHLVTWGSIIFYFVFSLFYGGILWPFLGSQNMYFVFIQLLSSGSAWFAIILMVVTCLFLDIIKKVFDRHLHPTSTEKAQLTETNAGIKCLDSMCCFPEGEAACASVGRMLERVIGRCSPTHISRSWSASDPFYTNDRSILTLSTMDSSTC

Experiments:
Experiment in all cases: log2 fold change, soluble protein after heating vs DMSO (PISA); higher = thermal stabilisation; K562 cells, 10 uM, 30 min; active = over 0.2 and 3.5 SD of the protein, either way, in both replicates (recomputed)
IRAK-1-4 Inhibitor I = compound: C1COCCN1CCN2C3=CC=CC=C3N=C2NC(=O)C4=CC(=CC=C4)[N+](=O)[O-] [IRAK-1-4 Inhibitor I]
How it was run: (§1)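 K562 cells (2×10^6 cells/mL) were treated with 10 μM compound for 30 min, and aliquots were heated for 3 min over 48°C-58°C. Pooled aliquots were extracted in PBS with 0.5% NP-40 at 4°C, and the supernatant after 21,000xg for 90 min was measured by TMTpro 16plex LC-MS/MS with channel sums equalised. Reported thermal stability, relative to control samples and from duplicates, is a log2 fold change.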

ibrutinib = compound: C=CC(=O)N1CCC[C@@H](n2nc(-c3ccc(Oc4ccccc4)cc3)c3c(N)ncnc32)C1 [ibrutinib]
How it was run: as §1

[1] = compound: CC(=O)c1cnc2ccc(-c3cc(Cl)c(O)c(Cl)c3)nc2c1N[C@H]1CC[C@H](CN(C)C)CC1
How it was run: as §1

ralimetinib = compound: CC(C)(C)Cn1c(N)nc2ccc(-c3[nH]c(C(C)(C)C)nc3-c3ccc(F)cc3)nc21 [ralimetinib]
How it was run: as §1

[2] = compound: CC(C)(O)CC(=O)NCCn1ccc2ncnc(Nc3ccc(Oc4cccc(C(F)(F)F)c4)c(Cl)c3)c21
How it was run: as §1

[3] = compound: CC(C)C1=C2N=C(C=C(N2N=C1)NCC3=CC=CC=C3)NCCCCCCN
How it was run: as §1

[4] = compound: CC(C)C[C@@H](C=O)NC(=O)[C@H](CC(C)C)NC(=O)[C@H](CC(C)C)NC(=O)OCc1ccccc1
How it was run: as §1

pinometostat = compound: CC(C)N(C[C@H]1O[C@@H](n2cnc3c(N)ncnc32)[C@H](O)[C@@H]1O)[C@H]1C[C@@H](CCc2nc3cc(C(C)(C)C)ccc3[nH]2)C1 [pinometostat]
How it was run: as §1

[5] = compound: CC1=C(C(CC(=O)N1)C2=CC=C(C=C2)C(F)(F)F)C(=O)NC3=C(C=C4C(=C3)C=NN4)F
How it was run: as §1

[6] = compound: CC1=C(C2=C(C=C1)C(=O)C3=CC=CC=C3N2CCCN)C
How it was run: as §1

[7] = compound: CC1=C(C=C(C=C1)NC(=O)C2=CC(=CC=C2)C(C)(C)C#N)NC3=CC4=C(C=C3)N=CN(C4=O)C
How it was run: as §1

[8] = compound: CC1=C(C=C(C=C1)NC(=O)C2=CC(=CC=C2)N(C)C)NC(=O)C3=CC=C(C=C3)O
How it was run: as §1

[9] = compound: CC1=CC=C(C=C1)SC2=C3C=C(SC3=CN=C2)C(=O)N
How it was run: as §1

[10] = compound: CC1=NC(=CC=C1)C2=C(N=C(N2)C(C)(C)C)C3=CC4=NC=CN=C4C=C3
How it was run: as §1

Nexturastat A = compound: CCCCN(Cc1ccc(C(=O)NO)cc1)C(=O)Nc1ccccc1 [Nexturastat A]
How it was run: as §1

vemurafenib = compound: CCCS(=O)(=O)Nc1ccc(F)c(C(=O)c2c[nH]c3ncc(-c4ccc(Cl)cc4)cc23)c1F [vemurafenib]
How it was run: as §1

[11] = compound: CCCS(=O)(=O)Nc1ccc(F)c(C(=O)c2c[nH]c3ncc(Cl)cc23)c1F
How it was run: as §1

[12] = compound: CCCc1cc(C)[nH]c(=O)c1CNC(=O)c1cc(-c2ccnc(N3CCN(C)CC3)c2)cc2c1cnn2C(C)C
How it was run: as §1

givinostat = compound: CCN(CC)Cc1ccc2cc(COC(=O)Nc3ccc(C(=O)NO)cc3)ccc2c1 [givinostat]
How it was run: as §1

barasertib = compound: CCN(CCCOc1ccc2c(Nc3cc(CC(=O)Nc4cccc(F)c4)[nH]n3)ncnc2c1)CCOP(=O)(O)O [barasertib]
How it was run: as §1

Measured: log2 fold change

ATN1 (UniProt P54259)
inactive: IRAK-1-4 Inhibitor I 0.049 | ibrutinib -0.023 | [1] 0.157 | ralimetinib -0.079 | [2] 0.068 | [3] 0.032 | [4] 0.046 | pinometostat -0.154 | [5] 0.046 | [6] -0.118 | [7] -0.037 | [8] 0.046 | [9] -0.04 | [10] 0.089 | Nexturastat A 0.02 | vemurafenib 0.027 | [11] 0.008 | [12] 0.003 | givinostat 0.057 | barasertib -0.018

ATG7 (UniProt O95352)
inactive: IRAK-1-4 Inhibitor I -0.001 | ibrutinib -0.022 | [1] 0.007 | ralimetinib 0.01 | [2] -0.048 | [3] -0.043 | [4] -0.021 | pinometostat 0.013 | [5] -0.006 | [6] -0.014 | [7] 0 | [8] -0.027 | [9] 0.006 | [10] 0.023 | Nexturastat A -0.05 | vemurafenib 0.021 | [11] 0.048 | [12] -0.016 | givinostat -0.017 | barasertib 0.033

ASNA1 (UniProt O43681)
inactive: IRAK-1-4 Inhibitor I -0.037 | ibrutinib 0.015 | [1] 0.055 | ralimetinib -0.043 | [2] -0.041 | [3] 0.01 | [4] -0.038 | pinometostat -0.05 | [5] -0.022 | [6] -0.008 | [7] 0.011 | [8] 0.026 | [9] -0.016 | [10] 0.065 | Nexturastat A -0.192 | vemurafenib 0.017 | [11] 0.039 | [12] -0.096 | givinostat -0.05 | barasertib -0.028

ARRB2 isoform 4 (UniProt P32121)
inactive: IRAK-1-4 Inhibitor I -0.008 | ibrutinib 0.052 | [1] -0.021 | ralimetinib -0.13 | [2] 0.014 | [3] 0.044 | [4] 0.018 | pinometostat 0.007 | [5] -0.052 | [6] 0.094 | [7] -0.044 | [8] 0 | [9] 0.024 | [10] -0.024 | Nexturastat A -0.054 | vemurafenib 0.035 | [11] 0.03 | [12] 0.017 | givinostat -0.022 | barasertib 0.011

ARSB (UniProt P15848)
inactive: IRAK-1-4 Inhibitor I 0.011 | ibrutinib 0.044 | [1] -0.11 | ralimetinib -0.009 | [2] 0.015 | [3] 0.002 | [4] -0.013 | pinometostat -0.094 | [5] 0.011 | [6] 0.027 | [7] 0.048 | [8] 0.063 | [9] 0.07 | [10] -0.038 | Nexturastat A -0.011 | vemurafenib -0.063 | [11] -0.113 | [12] -0.014 | givinostat 0.022 | barasertib 0.013

ARMCX3 (UniProt Q9UH62)
inactive: IRAK-1-4 Inhibitor I -0.145 | ibrutinib 0.013 | [1] 0.044 | ralimetinib 0.081 | [2] -0.058 | [3] -0.001 | [4] 0.092 | pinometostat 0.208 | [5] 0.011 | [6] 0.052 | [7] -0.071 | [8] -0.161 | [9] -0.049 | [10] -0.032 | Nexturastat A 0.014 | vemurafenib -0.171 | [11] 0.101 | [12] -0.061 | givinostat 0.015 | barasertib -0.119

ATG101 (UniProt Q9BSB4)
inactive: IRAK-1-4 Inhibitor I 0.024 | ibrutinib -0.067 | [1] -0.025 | ralimetinib -0.045 | [2] -0.015 | [3] 0.025 | [4] 0.015 | pinometostat -0.023 | [5] 0.016 | [6] -0.188 | [7] 0.02 | [8] 0.006 | [9] 0.009 | [10] 0.034 | Nexturastat A 0.074 | vemurafenib 0.02 | [11] -0.074 | [12] -0.042 | givinostat 0.028 | barasertib 0.02

ATP5F1A (UniProt P25705)
inactive: IRAK-1-4 Inhibitor I 0.027 | ibrutinib -0.023 | [1] 0.021 | ralimetinib -0.018 | [2] 0.028 | [3] 0.057 | [4] 0.055 | pinometostat -0.035 | [5] 0.016 | [6] -0.003 | [7] 0.002 | [8] 0.018 | [9] -0.029 | [10] 0 | Nexturastat A -0.085 | vemurafenib -0.009 | [11] -0.043 | [12] -0.029 | givinostat -0.012 | barasertib 0.01

ATP2B1 isoform 1 (UniProt P20020)
inactive: IRAK-1-4 Inhibitor I 0.012 | ibrutinib 0.032 | [1] -0.027 | ralimetinib -0.043 | [2] -0.007 | [3] 0.13 | [4] -0.014 | pinometostat -0.035 | [5] -0.004 | [6] 0.073 | [7] -0.02 | [8] 0.02 | [9] -0.003 | [10] 0.011 | Nexturastat A -0.048 | vemurafenib -0.004 | [11] -0.03 | [12] -0.043 | givinostat -0.001 | barasertib -0.008

ARPC1A (UniProt Q92747)
inactive: IRAK-1-4 Inhibitor I 0.067 | ibrutinib -0.02 | [1] 0.074 | ralimetinib -0.028 | [2] 0.031 | [3] 0.156 | [4] 0.026 | pinometostat 0.004 | [5] -0.065 | [6] 0.096 | [7] 0.02 | [8] 0.033 | [9] 0.016 | [10] -0.014 | Nexturastat A -0.052 | vemurafenib 0.001 | [11] 0.034 | [12] -0.07 | givinostat -0.044 | barasertib 0.009

ASPSCR1 isoform 2 (UniProt Q9BZE9)
inactive: IRAK-1-4 Inhibitor I 0.01 | ibrutinib 0.017 | [1] -0.016 | ralimetinib -0.02 | [2] -0.062 | [3] -0.002 | [4] 0.061 | pinometostat 0.054 | [5] -0.036 | [6] -0.022 | [7] -0.002 | [8] -0.014 | [9] 0.041 | [10] 0.031 | Nexturastat A -0.001 | vemurafenib 0.043 | [11] 0.113 | [12] -0.008 | givinostat -0.004 | barasertib 0.058

ATG2B (UniProt Q96BY7)
inactive: IRAK-1-4 Inhibitor I 0.03 | ibrutinib -0.013 | [1] -0.04 | ralimetinib -0.03 | [2] -0.008 | [3] -0.038 | [4] 0.023 | pinometostat -0.005 | [5] 0.027 | [6] -0.017 | [7] -0.057 | [8] 0.049 | [9] 0.11 | [10] -0.048 | Nexturastat A 0.017 | vemurafenib -0.01 | [11] 0.148 | [12] -0.041 | givinostat 0.004 | barasertib 0.014

ATP5F1C (UniProt P36542)
inactive: IRAK-1-4 Inhibitor I 0.008 | ibrutinib -0.005 | [1] 0.015 | ralimetinib -0.068 | [2] 0.031 | [3] 0.032 | [4] -0.055 | pinometostat -0.01 | [5] 0.025 | [6] 0.015 | [7] -0.015 | [8] -0.009 | [9] 0.014 | [10] 0.019 | Nexturastat A -0.009 | vemurafenib -0.01 | [11] 0 | [12] -0.021 | givinostat -0.003 | barasertib -0.009

ATP7A isoform 3 (UniProt Q04656)
inactive: IRAK-1-4 Inhibitor I 0.007 | ibrutinib -0.013 | [1] -0.008 | ralimetinib 0.005 | [2] -0.013 | [3] 0.113 | [4] -0.012 | pinometostat -0.009 | [5] -0.014 | [6] -0.007 | [7] -0.003 | [8] -0.008 | [9] 0.011 | [10] 0.015 | Nexturastat A 0.047 | vemurafenib 0.004 | [11] 0.026 | [12] -0.008 | givinostat -0.002 | barasertib 0.015

ATP11B (UniProt Q9Y2G3)
inactive: IRAK-1-4 Inhibitor I 0.029 | ibrutinib 0.035 | [1] 0.044 | ralimetinib -0.029 | [2] 0.021 | [3] 0 | [4] 0.002 | pinometostat -0.018 | [5] -0.003 | [6] 0.018 | [7] -0.038 | [8] 0.008 | [9] -0.008 | [10] 0.019 | Nexturastat A -0.094 | vemurafenib -0.061 | [11] 0.016 | [12] -0.05 | givinostat 0.025 | barasertib -0.019

2 neighbouring records out of the list so far, for reference:
ATP5F1C (UniProt P36542)
inactive: IRAK-1-4 Inhibitor I 0.008 | ibrutinib -0.005 | [1] 0.015 | ralimetinib -0.068 | [2] 0.031 | [3] 0.032 | [4] -0.055 | pinometostat -0.01 | [5] 0.025 | [6] 0.015 | [7] -0.015 | [8] -0.009 | [9] 0.014 | [10] 0.019 | Nexturastat A -0.009 | vemurafenib -0.01 | [11] 0 | [12] -0.021 | givinostat -0.003 | barasertib -0.009

ATP7A isoform 3 (UniProt Q04656)
inactive: IRAK-1-4 Inhibitor I 0.007 | ibrutinib -0.013 | [1] -0.008 | ralimetinib 0.005 | [2] -0.013 | [3] 0.113 | [4] -0.012 | pinometostat -0.009 | [5] -0.014 | [6] -0.007 | [7] -0.003 | [8] -0.008 | [9] 0.011 | [10] 0.015 | Nexturastat A 0.047 | vemurafenib 0.004 | [11] 0.026 | [12] -0.008 | givinostat -0.002 | barasertib 0.015

Carrying on:

ATP1A3 isoform 3 (UniProt P13637)
inactive: IRAK-1-4 Inhibitor I 0.023 | ibrutinib -0.008 | [1] 0.011 | ralimetinib -0.013 | [2] -0.011 | [3] 0.185 | [4] -0.03 | pinometostat -0.018 | [5] -0.027 | [6] -0.025 | [7] -0.009 | [8] 0.018 | [9] -0.019 | [10] -0.016 | Nexturastat A 0.061 | vemurafenib -0.02 | [11] -0.036 | [12] 0.001 | givinostat -0.017 | barasertib 0
